Data taken from ChEMBL document CHEMBL3988442, “University of Dundee, Small-Polar-MMV Screening Library” (2021).

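Whole-cell assay for inhibitors of Mycobacterium tuberculosis growth, labelled Cornell in the record; the read-out is not stated. The concentration is filed as 10 mM, unlikely as a test dose, so the dose is not known. The record gives no direction; compounds strong in two other growth screens of this library score well above the rest, so higher reads as stronger inhibition. About 53,000 compounds were tested under these conditions; 1.7% (about 900) showed 50% or more at least once.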

Values are the deposited “Percent Effect”, in %.
The record does not define 0% and 100%; most values in the screen are far below 50% and negative numbers occur (in some assays of this library far below -100).
The compounds are a random part of those screened.

structure,percent effect
CN(C)c1ncc(CN2CCC(c3nnsc3S(C)(=O)=O)CC2)cn1,6.674%
COc1cccc(S(=O)(=O)NC(=O)CC2CCCC2)c1,17.6%
Cc1nccc(-c2ccccc2)c1C(=O)N1CC[C@](C)(O)[C@H](C)C1,-54.52%
Cn1ncc(N2CCOC(CCNC(=O)CO)C2)cc1=O (stereo not drawn),-37.48%
Cc1ccc2c(c1)C(NCc1nnc3n1CCCCC3)CCCO2 (stereo not drawn),-2.941%
NC(=O)c1ccc2c(c1)nc1n2CCN(Cc2cccnc2)C1,11.63%
Fc1ccc(-c2nc(CN3CCn4c(nnc4C4CC4)C3)co2)cc1,-14.37%
CC(COCC(F)(F)F)NC(=O)c1ccc(-c2ccco2)[nH]c1=O (stereo not drawn),30.74%
O=C(CC1CCCC1)N1CCOC(c2nc(-c3ncccn3)no2)C1 (stereo not drawn),12.79%
Cc1ccc(CN2CCC(F)(F)C3(CCN(c4cnccn4)C3)C2)o1.O=C(O)C(F)(F)F.O=C(O)C(F)(F)F (stereo not drawn),25.26%
CN(Cc1cc[nH]n1)C(=O)c1cccc(CCC(C)(C)O)c1,0.6803%
CC(NC(=O)CCCc1ccc(Cl)cc1)c1n[nH]c(=O)[nH]1 (stereo not drawn),-6.779%
Cc1cccc(C(=O)N2CCN(C(=O)Cc3ccccn3)CC2)c1C,-37.07%
O=C(O)C(F)(F)F.[H][C@@]12CN(Cc3ccco3)CCC[C@]1(C(=O)O)CN(c1ncc(C)cn1)C2,11.03%
Cn1cc(CN2CCC3(CCC(C(=O)NCC4CC4)C3)CC2)cn1.O=C(O)C(F)(F)F (stereo not drawn),8.762%
CCCc1nc(C)c(CNc2nc(C)nc3onc(C)c23)s1,-6.091%
CC(C)c1nnsc1CNC(=O)C1CCN(C(=O)C2CCC2)CC1,-2.942%
CN(Cc1ccco1)C(=O)CN1CCCC(Cn2cncn2)C1 (stereo not drawn),12.54%
Cc1noc(C2CCN(C(=O)c3ccc(NC4CC4)nc3)CC2)n1,-9.226%
COCCN1CC(C(=O)N(CCN(C)C)Cc2ccc(C)s2)CC1=O (stereo not drawn),-11.35%
CCn1nccc1CN(C)C(=O)Cn1cc2c(n1)c(C)nn2CC,-2.637%
COc1ccc(-c2cc(CNc3ncnc4c3CCNCC4)no2)cc1,-7.853%
CCc1nc(C2CCCN2CC(=O)Nc2c(C)nn(C)c2C)no1 (stereo not drawn),-10.85%
CCn1ccnc1CN1CCN(CCCS(C)(=O)=O)CC1C (stereo not drawn),-17.23%
C/C=C(\C)CN1CCCn2nc(CNC(=O)C3CCC3)cc2C1,10.45%
COc1cc(C)cc(C(C(=O)O)N(C)Cc2ccncc2C)c1OC (stereo not drawn),16.34%
CC(C)(C#N)CCCS(=O)(=O)c1nccn1-c1cccc(F)c1,12.89%
CN(C)C(=O)N1CC2(CCOCC2)c2cc(NS(=O)(=O)C3CC3)ccc21,-8.72%
Cc1noc(CNC(=O)C(C)(C)NC(=O)OC(C)(C)C)n1,-4.274%
CCCc1cc(C(=O)N2CCCC2c2cccnc2)[nH]n1 (stereo not drawn),-14.33%
[H][C@@]12CN(Cc3ccoc3)CCO[C@]1([H])CN(C(=O)C1CC(F)(F)C1)C2,-6.334%
CC(=O)Nc1ccc(CNCC(O)c2ccc(Cl)cc2)cc1 (stereo not drawn),-39.79%
CC(C)CN1CCc2c(CN(C)Cc3ccco3)cncc2C1.Cl.Cl.Cl,13.4%
O=C(O)C(F)(F)F.[H][C@@]12COC[C@@H](C(=O)N3CCCC3)[C@]1([H])CN(c1ccncn1)C2,-25.24%
Cc1ccc(C(C)(O)CNC(=O)CCn2ccnc2C(C)C)o1 (stereo not drawn),8.41%
CCc1ccc(C2CCCCCN2Cc2nc(CCOC)no2)o1 (stereo not drawn),28.96%
O=C(CN1CCOC(Cn2cccn2)C1)NCc1ccccn1 (stereo not drawn),-20.45%
O=C(CCc1cscn1)NS(=O)(=O)c1ccc2ccccc2c1,11.85%
[H][C@]12CN(Cc3nc(C)c[nH]3)CC[C@@]1(O)CCN(C(=O)C1CCC1)C2,-4.325%
O=C(NCCc1nccs1)N1CCC(n2cccc2)CC1,-11.03%
O=C(NCCCN1CCCCC1)c1ccc(-n2ccc3ccccc32)s1,59.15%
COc1cccc(CNC(C)c2ccc(-n3ccnc3)cc2)c1O (stereo not drawn),4.668%
O=C1CC(c2ccc(O)cc2)c2sc(C(=O)O)c(-c3ccccc3)c2N1 (stereo not drawn),4.119%
Cc1cnc2c(C(=O)N(C)Cc3cc(C4CC4)[nH]n3)cnn2c1,-25.39%
CCCN(Cc1cccnc1)C(=O)C1CCNC1 (stereo not drawn),-5.356%
Cc1ccc(N2CC3(CCN(c4nccs4)C3)C2)nn1,32.31%
CN(C)[C@H]1CCCCN(Cc2ccccc2Cn2cccn2)C1,-15.42%
CN(C)CC1CCCCN1C(=O)c1ccc(N2CCOCC2)cc1 (stereo not drawn),10.92%
COc1ccc(N2CCN(C(=O)CCn3nccc3C)CC2(C)C)cc1,7.241%
Cn1ncc2c1CCCN(C(=O)C1CCC1)C2,9.231%
CCCn1ncc(C2CC(=O)NCc3nc4cc(C)ccn4c32)c1C (stereo not drawn),-1.3%
O=C(c1cncc(Br)c1)N1CCCc2c(F)cc(F)cc21,14.77%
O=C1NCCCC[C@@H]1NC(=O)C1(N2CCCCC2)Cc2ccccc2C1,15.43%
[H][C@@]12CCCN1CCCN(c1cc(C)nc3c(C)c(C)nn13)C2,11.32%
Cc1cc(CN2CCC3(CC2)CC(Nc2ncccn2)CO3)nn1C.O=C(O)C(F)(F)F (stereo not drawn),-5.405%
O=C(O)C(F)(F)F.O=C(O)C(F)(F)F.O=C(c1n[nH]c2c1CN(C1CCOC1)CC2)N1CCOCC1 (stereo not drawn),33.57%
O=C(Cc1ccsc1)NCC1Cn2nnc(-c3ccoc3)c2CO1 (stereo not drawn),-2.786%
O=C(C1CCOCC1)N1CCc2ncc(CN3CCCCC3)n2CC1,30.3%
CC(C)(C)n1cc(C#N)cc1NC(=O)CCS(=O)(=O)C1CCCC1,1.866%
CNC(=O)C1(CCCc2ccccn2)CN(Cc2scnc2C)C1,-20.24%
CCN(CC)S(=O)(=O)NC(=O)c1cc(C)n(-c2ccccc2)n1,-42.99%
[H][C@@]12CCN(c3ncccn3)C[C@]1([H])[C@@H](CN(C)Cc1cccnc1)OC2,-62.97%
O=C(O)c1ccn(-c2ccccc2NS(=O)(=O)c2cccc(F)c2)n1,-9.865%
CCn1cnnc1C1CCN(C(=O)c2ccccc2OC)CC1,4.447%
N#Cc1nccnc1N1CCC(CSc2ccccc2)C1 (stereo not drawn),53.28%
CN(Cc1cn2c(n1)CN(CC1CCOC1)CC2)Cc1ccco1.O=C(O)C(F)(F)F.O=C(O)C(F)(F)F (stereo not drawn),12.73%
CN(Cc1ccc(O)cc1)C(=O)NCc1nnc2n1CCCCC2,-23.1%
Cn1cc(C#N)cc1C(=O)NC1(C#N)CCSCC1,16.1%
Cn1c2ncccc2c(=O)n1CC(=O)NCCC1=CCCCC1,13.78%
CN(C)CCn1c2c(ccc1=O)CC(NC(=O)c1ccsc1)CC2.O=C(O)C(F)(F)F (stereo not drawn),-27.73%
c1cnc2c(c1)nc1n2[C@@H](CNC2CCOCC2)COC1,12.18%
CN1CCC(N2CCOC[C@H](OCC(=O)N(C)C)C2)CC1,-6.851%
CCN(CC)C(=O)C1CCCN1C(=O)c1cccc(-n2cnnn2)c1 (stereo not drawn),-29.44%

The first 7 entries again:

CN(C)c1ncc(CN2CCC(c3nnsc3S(C)(=O)=O)CC2)cn1 gave 6.674%.
COc1cccc(S(=O)(=O)NC(=O)CC2CCCC2)c1 gave 17.6%.
Cc1nccc(-c2ccccc2)c1C(=O)N1CC[C@](C)(O)[C@H](C)C1 gave -54.52%.
Cn1ncc(N2CCOC(CCNC(=O)CO)C2)cc1=O (stereo not drawn) gave -37.48%.
Cc1ccc2c(c1)C(NCc1nnc3n1CCCCC3)CCCO2 (stereo not drawn) gave -2.941%.
NC(=O)c1ccc2c(c1)nc1n2CCN(Cc2cccnc2)C1 gave 11.63%.
Fc1ccc(-c2nc(CN3CCn4c(nnc4C4CC4)C3)co2)cc1 gave -14.37%.